According to the supplement of paper PMC10849652:
This is one part of the list.

The chains behind the UniProt entries cited, without tags or fusion partners. Where a name states a change or a piece, a line headed by the entry shows the natural chain unless it says otherwise.
UniProt O75781: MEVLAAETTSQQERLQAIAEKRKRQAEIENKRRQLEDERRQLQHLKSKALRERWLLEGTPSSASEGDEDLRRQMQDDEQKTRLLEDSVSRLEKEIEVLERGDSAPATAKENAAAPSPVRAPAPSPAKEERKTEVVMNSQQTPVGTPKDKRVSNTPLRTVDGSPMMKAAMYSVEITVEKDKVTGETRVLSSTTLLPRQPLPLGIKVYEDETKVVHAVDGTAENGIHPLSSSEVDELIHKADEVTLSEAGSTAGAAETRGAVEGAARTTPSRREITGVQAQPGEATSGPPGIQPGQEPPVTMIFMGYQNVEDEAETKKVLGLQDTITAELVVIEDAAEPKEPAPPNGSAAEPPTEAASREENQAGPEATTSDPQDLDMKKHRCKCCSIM
UniProt Q9P0J1: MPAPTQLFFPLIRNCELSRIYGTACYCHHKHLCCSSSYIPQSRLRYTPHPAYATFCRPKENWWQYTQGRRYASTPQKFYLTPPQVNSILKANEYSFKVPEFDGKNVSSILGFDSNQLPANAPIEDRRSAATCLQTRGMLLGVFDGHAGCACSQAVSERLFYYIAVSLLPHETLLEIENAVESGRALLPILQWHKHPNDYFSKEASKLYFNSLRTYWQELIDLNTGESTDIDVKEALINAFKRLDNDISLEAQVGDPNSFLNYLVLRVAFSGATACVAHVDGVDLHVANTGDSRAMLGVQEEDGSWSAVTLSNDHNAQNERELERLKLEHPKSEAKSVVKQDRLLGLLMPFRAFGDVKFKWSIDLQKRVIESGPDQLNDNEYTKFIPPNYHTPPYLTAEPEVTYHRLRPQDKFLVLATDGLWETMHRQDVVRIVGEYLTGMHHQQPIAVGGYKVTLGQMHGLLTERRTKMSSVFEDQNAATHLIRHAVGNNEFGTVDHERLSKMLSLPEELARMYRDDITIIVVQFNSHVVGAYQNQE
UniProt Q9UKK3: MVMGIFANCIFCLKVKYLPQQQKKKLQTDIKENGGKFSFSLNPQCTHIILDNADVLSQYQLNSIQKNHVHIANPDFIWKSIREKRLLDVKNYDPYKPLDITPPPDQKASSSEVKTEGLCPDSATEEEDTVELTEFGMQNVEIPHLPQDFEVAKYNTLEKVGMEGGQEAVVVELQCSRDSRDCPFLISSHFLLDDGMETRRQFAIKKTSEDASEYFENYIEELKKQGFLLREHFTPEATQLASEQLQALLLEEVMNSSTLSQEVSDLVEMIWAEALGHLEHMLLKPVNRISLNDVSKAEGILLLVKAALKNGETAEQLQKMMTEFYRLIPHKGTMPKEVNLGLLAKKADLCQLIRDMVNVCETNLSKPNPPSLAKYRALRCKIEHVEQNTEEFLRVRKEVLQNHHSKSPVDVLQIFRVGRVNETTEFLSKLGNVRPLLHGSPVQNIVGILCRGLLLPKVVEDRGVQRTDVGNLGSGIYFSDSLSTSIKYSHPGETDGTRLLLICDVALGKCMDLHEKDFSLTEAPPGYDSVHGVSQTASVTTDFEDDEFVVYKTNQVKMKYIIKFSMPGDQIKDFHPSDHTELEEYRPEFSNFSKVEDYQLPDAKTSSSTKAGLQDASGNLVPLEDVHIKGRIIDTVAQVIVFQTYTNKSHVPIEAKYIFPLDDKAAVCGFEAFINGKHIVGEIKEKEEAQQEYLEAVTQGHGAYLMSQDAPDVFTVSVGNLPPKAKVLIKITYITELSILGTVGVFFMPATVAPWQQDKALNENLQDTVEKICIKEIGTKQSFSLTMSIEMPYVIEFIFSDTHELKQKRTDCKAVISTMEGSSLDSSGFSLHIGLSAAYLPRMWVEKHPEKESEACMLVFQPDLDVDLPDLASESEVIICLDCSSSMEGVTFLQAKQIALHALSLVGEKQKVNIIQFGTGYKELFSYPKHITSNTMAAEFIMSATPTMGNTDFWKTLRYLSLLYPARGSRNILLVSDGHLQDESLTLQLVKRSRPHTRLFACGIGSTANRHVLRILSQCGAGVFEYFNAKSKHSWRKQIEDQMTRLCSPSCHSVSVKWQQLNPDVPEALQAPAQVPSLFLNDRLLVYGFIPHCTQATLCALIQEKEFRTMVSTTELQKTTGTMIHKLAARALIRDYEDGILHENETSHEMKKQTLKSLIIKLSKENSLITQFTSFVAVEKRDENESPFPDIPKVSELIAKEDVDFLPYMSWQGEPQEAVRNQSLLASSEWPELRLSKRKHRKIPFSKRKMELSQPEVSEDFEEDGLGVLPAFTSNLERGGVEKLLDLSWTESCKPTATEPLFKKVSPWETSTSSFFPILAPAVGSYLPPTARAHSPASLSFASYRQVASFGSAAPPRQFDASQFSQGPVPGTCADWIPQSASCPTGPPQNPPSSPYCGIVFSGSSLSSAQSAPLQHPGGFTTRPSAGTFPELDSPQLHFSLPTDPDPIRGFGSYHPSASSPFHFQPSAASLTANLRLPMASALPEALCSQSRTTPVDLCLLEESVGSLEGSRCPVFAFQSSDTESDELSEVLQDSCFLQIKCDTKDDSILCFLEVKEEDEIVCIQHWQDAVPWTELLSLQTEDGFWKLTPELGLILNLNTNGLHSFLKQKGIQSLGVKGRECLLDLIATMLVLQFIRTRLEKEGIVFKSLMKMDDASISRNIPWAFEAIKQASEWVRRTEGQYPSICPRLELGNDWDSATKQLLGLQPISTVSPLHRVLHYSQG
UniProt Q96MG8: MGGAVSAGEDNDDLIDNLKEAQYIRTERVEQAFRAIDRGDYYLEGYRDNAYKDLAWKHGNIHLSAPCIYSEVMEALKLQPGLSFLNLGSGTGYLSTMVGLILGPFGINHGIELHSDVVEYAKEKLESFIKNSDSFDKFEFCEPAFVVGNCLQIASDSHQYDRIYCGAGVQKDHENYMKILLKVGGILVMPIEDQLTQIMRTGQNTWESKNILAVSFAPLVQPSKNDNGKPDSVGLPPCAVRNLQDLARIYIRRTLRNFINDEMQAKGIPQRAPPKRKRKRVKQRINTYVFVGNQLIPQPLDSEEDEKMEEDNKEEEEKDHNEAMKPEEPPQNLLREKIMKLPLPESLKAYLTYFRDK
UniProt Q8TEW0: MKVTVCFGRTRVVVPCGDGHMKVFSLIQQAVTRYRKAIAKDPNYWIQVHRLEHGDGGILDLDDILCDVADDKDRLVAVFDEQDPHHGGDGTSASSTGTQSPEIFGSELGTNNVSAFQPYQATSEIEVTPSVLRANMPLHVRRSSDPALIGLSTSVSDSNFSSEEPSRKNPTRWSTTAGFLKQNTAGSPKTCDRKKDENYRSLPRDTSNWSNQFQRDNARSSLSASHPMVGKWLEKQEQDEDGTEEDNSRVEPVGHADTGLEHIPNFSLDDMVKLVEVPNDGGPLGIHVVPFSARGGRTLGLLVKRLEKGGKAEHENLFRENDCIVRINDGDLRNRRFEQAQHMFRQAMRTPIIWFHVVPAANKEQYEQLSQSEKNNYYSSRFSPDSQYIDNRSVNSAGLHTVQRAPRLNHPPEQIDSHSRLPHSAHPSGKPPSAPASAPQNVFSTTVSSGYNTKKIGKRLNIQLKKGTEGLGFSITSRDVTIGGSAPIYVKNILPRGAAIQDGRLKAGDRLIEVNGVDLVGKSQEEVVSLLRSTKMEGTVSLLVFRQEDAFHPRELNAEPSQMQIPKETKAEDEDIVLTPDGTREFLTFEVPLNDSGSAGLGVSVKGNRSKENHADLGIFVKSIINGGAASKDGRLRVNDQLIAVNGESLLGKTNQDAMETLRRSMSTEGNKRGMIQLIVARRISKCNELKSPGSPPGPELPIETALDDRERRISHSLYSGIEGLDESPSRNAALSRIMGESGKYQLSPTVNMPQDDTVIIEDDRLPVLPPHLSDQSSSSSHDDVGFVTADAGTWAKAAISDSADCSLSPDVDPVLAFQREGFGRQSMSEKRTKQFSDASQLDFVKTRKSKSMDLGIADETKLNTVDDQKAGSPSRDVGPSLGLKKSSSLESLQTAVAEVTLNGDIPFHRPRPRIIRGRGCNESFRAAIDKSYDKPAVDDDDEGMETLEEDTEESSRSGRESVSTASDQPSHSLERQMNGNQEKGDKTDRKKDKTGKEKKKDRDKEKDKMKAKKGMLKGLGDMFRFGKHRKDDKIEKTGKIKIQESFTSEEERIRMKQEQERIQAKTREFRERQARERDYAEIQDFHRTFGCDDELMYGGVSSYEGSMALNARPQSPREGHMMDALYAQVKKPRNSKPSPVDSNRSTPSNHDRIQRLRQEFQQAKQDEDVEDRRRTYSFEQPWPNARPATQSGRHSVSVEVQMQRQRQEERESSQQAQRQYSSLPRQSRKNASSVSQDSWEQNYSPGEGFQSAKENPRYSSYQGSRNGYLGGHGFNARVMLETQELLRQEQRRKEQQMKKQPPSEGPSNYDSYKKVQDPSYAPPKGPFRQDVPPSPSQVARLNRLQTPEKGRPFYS
UniProt Q9H999: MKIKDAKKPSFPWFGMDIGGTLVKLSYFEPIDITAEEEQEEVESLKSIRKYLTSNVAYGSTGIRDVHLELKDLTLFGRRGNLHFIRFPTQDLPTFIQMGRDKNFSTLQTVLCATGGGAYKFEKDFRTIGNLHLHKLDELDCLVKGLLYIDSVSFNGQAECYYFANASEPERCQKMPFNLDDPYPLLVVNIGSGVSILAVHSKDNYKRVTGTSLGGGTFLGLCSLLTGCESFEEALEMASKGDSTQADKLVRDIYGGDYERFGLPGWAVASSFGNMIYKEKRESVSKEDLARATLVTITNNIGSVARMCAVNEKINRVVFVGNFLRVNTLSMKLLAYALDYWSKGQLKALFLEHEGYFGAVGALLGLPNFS
UniProt Q13370: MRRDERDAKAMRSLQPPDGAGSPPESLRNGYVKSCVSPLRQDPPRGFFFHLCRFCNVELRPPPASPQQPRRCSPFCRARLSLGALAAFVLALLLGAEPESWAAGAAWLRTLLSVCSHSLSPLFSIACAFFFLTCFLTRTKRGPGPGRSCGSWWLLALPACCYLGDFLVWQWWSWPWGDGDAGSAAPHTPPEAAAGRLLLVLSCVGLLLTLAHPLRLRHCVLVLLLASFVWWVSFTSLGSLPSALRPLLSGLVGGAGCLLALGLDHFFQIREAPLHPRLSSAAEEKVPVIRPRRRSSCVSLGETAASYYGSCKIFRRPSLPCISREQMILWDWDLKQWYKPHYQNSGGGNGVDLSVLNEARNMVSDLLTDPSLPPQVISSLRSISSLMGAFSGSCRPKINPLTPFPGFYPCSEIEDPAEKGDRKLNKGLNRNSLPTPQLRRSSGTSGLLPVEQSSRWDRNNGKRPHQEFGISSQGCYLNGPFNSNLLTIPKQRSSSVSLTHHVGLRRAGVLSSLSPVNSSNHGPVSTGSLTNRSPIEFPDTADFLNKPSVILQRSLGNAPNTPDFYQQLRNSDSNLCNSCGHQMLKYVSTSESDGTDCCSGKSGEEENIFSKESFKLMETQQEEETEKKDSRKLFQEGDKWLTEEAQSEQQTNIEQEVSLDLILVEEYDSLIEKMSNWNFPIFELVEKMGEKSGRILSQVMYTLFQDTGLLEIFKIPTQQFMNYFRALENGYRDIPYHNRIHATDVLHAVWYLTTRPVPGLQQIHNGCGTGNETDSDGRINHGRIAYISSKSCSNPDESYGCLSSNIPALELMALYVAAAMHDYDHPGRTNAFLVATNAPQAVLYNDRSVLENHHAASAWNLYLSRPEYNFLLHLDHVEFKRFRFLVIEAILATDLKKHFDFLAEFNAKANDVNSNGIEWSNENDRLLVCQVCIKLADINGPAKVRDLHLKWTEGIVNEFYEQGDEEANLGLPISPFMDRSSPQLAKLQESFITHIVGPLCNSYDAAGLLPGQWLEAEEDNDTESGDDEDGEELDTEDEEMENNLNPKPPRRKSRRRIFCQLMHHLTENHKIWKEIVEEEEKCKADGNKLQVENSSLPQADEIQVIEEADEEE
UniProt P30039: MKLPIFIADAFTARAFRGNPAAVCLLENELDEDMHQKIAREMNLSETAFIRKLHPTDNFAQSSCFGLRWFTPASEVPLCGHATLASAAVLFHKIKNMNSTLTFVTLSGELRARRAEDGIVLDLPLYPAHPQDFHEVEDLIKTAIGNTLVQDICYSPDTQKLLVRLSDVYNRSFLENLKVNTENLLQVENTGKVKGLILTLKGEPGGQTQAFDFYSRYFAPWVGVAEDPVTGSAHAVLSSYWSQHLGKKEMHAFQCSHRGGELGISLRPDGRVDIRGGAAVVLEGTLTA
UniProt Q5JVF3: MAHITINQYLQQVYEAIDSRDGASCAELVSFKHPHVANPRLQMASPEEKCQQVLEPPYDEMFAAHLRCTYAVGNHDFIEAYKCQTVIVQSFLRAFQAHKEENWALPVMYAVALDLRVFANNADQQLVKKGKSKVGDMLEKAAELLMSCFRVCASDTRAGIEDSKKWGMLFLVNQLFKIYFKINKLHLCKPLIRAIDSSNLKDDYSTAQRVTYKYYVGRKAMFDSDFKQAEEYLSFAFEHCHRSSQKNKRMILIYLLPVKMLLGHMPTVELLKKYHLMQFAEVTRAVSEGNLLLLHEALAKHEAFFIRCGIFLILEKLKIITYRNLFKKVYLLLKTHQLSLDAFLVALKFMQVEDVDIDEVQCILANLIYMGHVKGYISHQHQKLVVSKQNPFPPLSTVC

Key:
Assay in all cases: log2 fold change, soluble protein after heating vs DMSO (PISA); higher = thermal stabilisation; K562 cells, 10 uM, 30 min; active = over 0.2 and 3.5 SD of the protein, either way, in both replicates (recomputed)
[1] = compound: NC(=O)Nc1cc(-c2cccc(F)c2)sc1C(=O)N[C@H]1CCCNC1
In short: (§1)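 For each measurement, 10 μM compound was applied for 30 min to K562 cells at 2×10^6 cells/mL. Aliquots were heated for 3 min across 48°C-58°C, pooled, and extracted in PBS with 0.5% NP-40 at 4°C; the supernatant after 21,000xg for 90 min was soluble protein. This was quantified by TMTpro 16plex LC-MS/MS with channel sums equalised, and thermal stability was reported relative to control samples from duplicates, on a log2 fold-change scale.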

[2] = compound: NC(=O)c1cnc(N[C@@H]2CCCC[C@@H]2N)nc1Nc1cccc(-n2nccn2)c1
In short: as §1

[3] = compound: NCC(=O)Nc1ccc(-n2nc(C(F)(F)F)cc2-c2ccc3c(ccc4ccccc43)c2)cc1
In short: as §1

entinostat = compound: Nc1ccccc1NC(=O)c1ccc(CNC(=O)OCc2cccnc2)cc1 [entinostat]
In short: as §1

[4] = compound: NC1(c2ccc(-c3nc4ccn5c(=O)[nH]nc5c4cc3-c3ccccc3)cc2)CCC1
In short: as §1

silmitasertib = compound: O=C(O)c1ccc2c(c1)nc(Nc1cccc(Cl)c1)c1ccncc12 [silmitasertib]
In short: as §1

vorinostat = compound: O=C(CCCCCCC(=O)Nc1ccccc1)NO [vorinostat]
In short: as §1

citarinostat = compound: O=C(CCCCCCNC(=O)c1cnc(N(c2ccccc2)c2ccccc2Cl)nc1)NO [citarinostat]
In short: as §1

[5] = compound: c1cc(OCCN2CCCCC2)cc(-c2n[nH]c3ccc(-c4nnc[nH]4)cc23)c1
In short: as §1

entospletinib = compound: c1cn2cc(-c3ccc4cn[nH]c4c3)nc(Nc3ccc(N4CCOCC4)cc3)c2n1 [entospletinib]
In short: as §1

[6] = compound: O=C1NC(=O)C(c2cnc3ccccn23)=C1c1cn2c3c(cc(F)cc13)CN(C(=O)N1CCCCC1)CC2
In short: as §1

Measured: log2 fold change

PAFAH2 (UniProt Q99487)
inactive: [1] 0.079 | [2] -0.194 | [3] 0.04 | entinostat 0.075

PALM (UniProt O75781)
inactive: [4] 0.093 | [3] -0.105 | silmitasertib 0.049

PEX10 isoform 2 (UniProt O60683)
inactive: [1] -0.111 | [2] -0.032 | [4] -0.081 | entinostat -0.022 | vorinostat -0.112 | silmitasertib 0.078

PDIA4, A0A499FI48
inactive: [2] -0.034 | [4] 0.047 | [3] -0.214 | vorinostat -0.031 | citarinostat -0.161 | silmitasertib 0.012 | [5] -0.092 | entospletinib 0.078

PDCD2 (UniProt Q16342)
inactive: [1] -0.081 | [4] 0.145 | entinostat 0.02 | citarinostat 0.081 | silmitasertib 0.317 | [6] 0.115 | [5] -0.066 | entospletinib 0.069

PAN2 (UniProt Q504Q3)
inactive: [3] -0.198 | citarinostat -0.127 | [5] 0.002

PCM1 isoform 2 (UniProt Q15154)
inactive: [1] 0.068 | [4] -0.119 | entinostat 0.067 | vorinostat 0.053 | silmitasertib -0.071

PEX12 (UniProt O00623)
inactive: [1] -0.101 | [2] -0.043 | [4] -0.02 | [3] -0.059 | entinostat -0.043 | vorinostat 0.006 | silmitasertib 0 | [6] -0.022

PAN3 (UniProt Q58A45)
inactive: vorinostat -0.122

PDZD11 isoform 2 (UniProt Q5EBL8)
inactive: [1] -0.032 | [4] 0.003 | [3] 0.015 | entinostat 0.053 | vorinostat 0.012 | citarinostat 0.046 | silmitasertib 0.108 | [6] -0.055 | [5] -0.021 | entospletinib -0.024

PCNX1 (UniProt Q96RV3)
inactive: [4] 0.042 | [3] -0.043 | citarinostat -0.237 | silmitasertib -0.11 | [6] -0.14 | [5] -0.269

PDE4A (UniProt P27815)
inactive: [3] 0.047 | [6] -0.017
active: [2] -0.67

Quoted at random: 3 entries already listed
PDZD11 isoform 2 (UniProt Q5EBL8)
inactive: [1] -0.032 | [4] 0.003 | [3] 0.015 | entinostat 0.053 | vorinostat 0.012 | citarinostat 0.046 | silmitasertib 0.108 | [6] -0.055 | [5] -0.021 | entospletinib -0.024

PCNX1 (UniProt Q96RV3)
inactive: [4] 0.042 | [3] -0.043 | citarinostat -0.237 | silmitasertib -0.11 | [6] -0.14 | [5] -0.269

PDE4A (UniProt P27815)
inactive: [3] 0.047 | [6] -0.017
active: [2] -0.67

Further entries

PAICS (UniProt D6RF62)
inactive: [2] -0.446 | vorinostat -0.494 | citarinostat -0.167 | [5] -0.099 | entospletinib 0.252

PDIK1L (UniProt Q8N165)
active: [1] 0.566
inactive: [2] -0.025 | [4] -0.075 | [3] -0.225 | entinostat -0.094 | citarinostat 0.016 | silmitasertib 0.035 | [6] 0.019 | [5] -0.162

PCGF5 (UniProt Q86SE9)
inactive: [1] -0.145 | entinostat -0.003 | citarinostat 0.111 | [6] -0.002 | [5] -0.263 | entospletinib 0.024

PAFAH1B1 (UniProt I3L3N5)
inactive: [2] -0.237 | [4] -0.056 | [3] -0.312 | silmitasertib 0.027

PDP1 isoform 2 (UniProt Q9P0J1)
inactive: [1] -0.151 | entinostat -0.141

PABPN1 (UniProt Q86U42)
inactive: [4] 0.25 | vorinostat -0.61 | silmitasertib 0.156

PDE6C (UniProt P51160)
inactive: [1] 0.005 | [2] -0.229 | [4] -0.083 | [3] 0.179 | entinostat 0.034 | citarinostat 0.061 | silmitasertib -0.182 | [5] -0.073 | entospletinib -0.112

PCF11 (UniProt O94913)
inactive: [2] -0.047 | [4] -0.333 | [3] -0.179 | vorinostat -0.04 | citarinostat 0.001 | silmitasertib -0.113 | [5] 0.112
active: entospletinib -0.745

PAF1 (UniProt Q8N7H5)
inactive: [4] 0.232 | vorinostat -0.015 | silmitasertib 0.038 | [6] -0.05

PARP4 (UniProt Q9UKK3)
inactive: [1] -0.229 | entinostat -0.1

PCMTD1 (UniProt Q96MG8)
inactive: [6] 0.125

PARD3 (UniProt Q8TEW0)
inactive: vorinostat 0.142 | citarinostat 0.068 | [5] -0.066 | entospletinib -0.173

PACC1 (UniProt Q9H813)
inactive: [1] -0.068 | [2] 0.038 | [4] -0.058 | [3] -0.138 | entinostat -0.094 | silmitasertib 0.146 | [6] 0.043

PANK3 (UniProt Q9H999)
inactive: [1] -0.199 | [2] -0.05 | entinostat -0.061 | vorinostat -0.018 | citarinostat 0.132 | [6] -0.078 | [5] -0.198 | entospletinib -0.071

PACSIN3 (UniProt Q9UKS6)
inactive: [6] 0.142

PDE3B (UniProt Q13370)
inactive: [4] 0.183 | silmitasertib 0.248 | [6] 0.305

PDE6D (UniProt O43924)
inactive: [1] 0.001 | [2] -0.113 | [4] 0.122 | [3] 0.025 | entinostat 0.125 | vorinostat -0.007 | silmitasertib 0.077 | [6] 0.009

PCMTD2 (UniProt Q9NV79)
inactive: [4] 0.015 | silmitasertib -0.055

PBLD (UniProt P30039)
inactive: [1] 0.029 | [2] -0.059 | [4] -0.058 | [3] -0.07 | entinostat -0.033 | citarinostat 0 | silmitasertib -0.013 | [6] -0.067 | [5] 0.224 | entospletinib 0.004

PCDH1 isoform 2 (UniProt Q08174)
inactive: [1] -0.129 | entinostat -0.146

PCBP2 (UniProt F8VZX2)
inactive: [4] 0.158 | silmitasertib 0.193

PACS2 isoform 2 (UniProt Q86VP3)
inactive: [1] -0.319 | entinostat 0.056

PDE4DIP (UniProt E9PS60)
inactive: [3] -0.172 | citarinostat 0.06 | [5] -0.051

PDSS2 (UniProt Q86YH6)
inactive: [1] -0.108 | [2] -0.015 | [3] 0.011 | entinostat -0.009 | vorinostat 0.041 | citarinostat 0.018 | [6] 0.026 | [5] -0.029

PAXBP1 (UniProt Q9Y5B6)
inactive: vorinostat 0.065 | citarinostat -0.106 | [5] -0.162 | entospletinib -0.064

PCID2 (UniProt Q5JVF3)
inactive: [1] -0.019 | [4] -0.103 | [3] 0.06 | entinostat 0.12 | vorinostat 0.199 | citarinostat -0.004 | silmitasertib 0.038 | [6] -0.15 | [5] 0.062

PDXP (UniProt B1AHD3)
inactive: [3] 0.006 | [6] -0.182

PACRGL (UniProt Q8N7B6)
inactive: [1] 0.055 | entinostat -0.116
